Values of other authors, collected in patent publication US12533334B2, “Compositions and methods for modulating equine fatty acid profiles” (KENTUCKY EQUINE RESEARCH, INC., priority 2021, dated 2026).
At least one compound was matched to its structure with a doubt left.

Test system: indomethacin-induced gastric damage
Details: akin to omeprazole

SMILES: CC/C=C\C/C=C\C/C=C\C/C=C\C/C=C\C/C=C\CCC(=O)O [DHA, docosahexaenoic acid]
- Protection against indomethacin-induced gastric damage: protective
